Test results published in paper PMC10310825.
These are yes or no findings as the source states them, for the method shown. In cells and extracts the contact can be indirect. Some entries that bind do so weakly or less than the wild type.

By UniProt entry, the sequences of proteins in these tests, tags left out.
UniProt P04198: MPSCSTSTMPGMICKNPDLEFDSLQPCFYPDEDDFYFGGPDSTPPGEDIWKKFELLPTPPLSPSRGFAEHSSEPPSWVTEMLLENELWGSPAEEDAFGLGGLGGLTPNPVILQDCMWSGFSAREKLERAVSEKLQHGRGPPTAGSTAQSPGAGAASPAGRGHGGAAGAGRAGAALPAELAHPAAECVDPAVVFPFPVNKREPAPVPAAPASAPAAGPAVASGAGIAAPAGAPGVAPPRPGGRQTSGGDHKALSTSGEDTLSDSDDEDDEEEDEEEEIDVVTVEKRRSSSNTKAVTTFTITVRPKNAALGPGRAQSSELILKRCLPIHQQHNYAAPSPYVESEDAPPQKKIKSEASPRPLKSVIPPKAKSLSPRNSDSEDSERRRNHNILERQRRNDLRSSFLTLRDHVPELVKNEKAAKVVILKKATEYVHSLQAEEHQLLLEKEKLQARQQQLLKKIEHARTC
UniProt P25103: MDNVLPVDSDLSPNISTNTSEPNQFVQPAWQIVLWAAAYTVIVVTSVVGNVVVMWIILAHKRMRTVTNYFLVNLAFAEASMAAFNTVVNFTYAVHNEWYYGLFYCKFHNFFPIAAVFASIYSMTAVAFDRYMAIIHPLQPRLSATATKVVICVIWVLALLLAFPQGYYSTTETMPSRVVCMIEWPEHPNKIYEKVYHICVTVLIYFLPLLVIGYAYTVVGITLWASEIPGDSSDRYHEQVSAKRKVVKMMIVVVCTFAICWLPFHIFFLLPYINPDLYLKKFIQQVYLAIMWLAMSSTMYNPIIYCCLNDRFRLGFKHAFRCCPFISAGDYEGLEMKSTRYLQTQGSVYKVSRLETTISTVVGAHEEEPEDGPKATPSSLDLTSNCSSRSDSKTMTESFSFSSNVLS

T1: Aurora A (AURKA) (human (endogenous in LNCaP-NE, 22Rv1-NE and other human PCa cell lines)) (UniProt O14965)
T1 sequence: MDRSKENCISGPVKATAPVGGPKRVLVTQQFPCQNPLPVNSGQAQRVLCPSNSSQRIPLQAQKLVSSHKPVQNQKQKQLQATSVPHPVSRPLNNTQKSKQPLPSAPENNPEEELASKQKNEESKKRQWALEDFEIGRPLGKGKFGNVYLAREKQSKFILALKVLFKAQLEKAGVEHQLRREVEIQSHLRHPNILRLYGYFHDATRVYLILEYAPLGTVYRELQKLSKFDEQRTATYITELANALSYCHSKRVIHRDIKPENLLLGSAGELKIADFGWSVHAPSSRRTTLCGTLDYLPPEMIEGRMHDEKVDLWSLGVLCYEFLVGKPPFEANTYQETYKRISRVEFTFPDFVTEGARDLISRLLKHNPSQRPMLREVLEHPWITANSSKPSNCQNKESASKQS

B1: Aurora A (AURKA) (enzyme, UniProt O14965 1-403)
chain: MDRSKENCISGPVKATAPVGGPKRVLVTQQFPCQNPLPVNSGQAQRVLCPSNSSQRIPLQAQKLVSSHKPVQNQKQKQLQATSVPHPVSRPLNNTQKSKQPLPSAPENNPEEELASKQKNEESKKRQWALEDFEIGRPLGKGKFGNVYLAREKQSKFILALKVLFKAQLEKAGVEHQLRREVEIQSHLRHPNILRLYGYFHDATRVYLILEYAPLGTVYRELQKLSKFDEQRTATYITELANALSYCHSKRVIHRDIKPENLLLGSAGELKIADFGWSVHAPSSRRTTLCGTLDYLPPEMIEGRMHDEKVDLWSLGVLCYEFLVGKPPFEANTYQETYKRISRVEFTFPDFVTEGARDLISRLLKHNPSQRPMLREVLEHPWITANSSKPSNCQNKESASKQS

Experiments:
Assay in all cases: co-IP; endogenous proteins in RIPA lysates (about 100 μg) of LNCaP-NE, 22Rv1-NE, 22Rv1-NK1R, LNCaP-NK1R, DU145 and PC-3 cells; IP with anti-N-MYC, anti-Aurora A or anti-PKCα (1:100) overnight at 4 °C, protein A + G agarose, IgG as control, immunoblot; also after NK1R knock-down or MLN8237 treatment (AURKA/N-Myc interaction reduced)
[1] = molecular target: T1, Aurora A (AURKA) (human (endogenous in LNCaP-NE, 22Rv1-NE and other human PCa cell lines))
[2] = molecular target: N-Myc (human (endogenous in LNCaP-NE, 22Rv1-NE and other human PCa cell lines)) (UniProt P04198)
[3] = molecular target: PKCα (human (endogenous in LNCaP-NE, 22Rv1-NE and other human PCa cell lines)) (UniProt P17252)

Molecule | binding [1] | binding [2] | binding [3]
neurokinin-1 receptor (NK1R) (from UniProt P25103 1-407) | no binding | no binding | –
PKCα (from UniProt P17252 1-672) (enzyme) | binds | – | –
B1 | – | – | binds
